Measured values reported in PubChem BioAssay AID2685 (National Center for Advancing Translational Sciences (NCATS), 2010).
This is one part of the list. Shown are side measurements of this screen, not its main read-out; they come without a call. Most of these compounds were active or inconclusive in the main read-out, so they are no random draw. Potencies come from curve fits of mixed quality, noted in brackets. Where a SMILES comes first, the peptide text is derived from it. The star is where a group is joined. Bz = O=C(c1ccccc1)*

Assay: qHTS Assay for Lipid Storage Modulators in Drosophila S3 Cells;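 for cell number change: cells counted by Cell Tracker Red CMTPX staining in the red channel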
Details: BODIPY lipid droplet fluorescence, 18-24 h; for cell number change: measured here: cell count max response, cells fed with added oleic acid
Summary of the method: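 Drosophila S3 cells got compounds at several concentrations plus oleic acid (400 uM solution). Laser-scanning cytometry with 488 nm excitation read lipid droplets at 500-530 nm and cells at 575-640 nm. Percent activity was relative to 20 uM Triacsin C.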

[1] = measured here: cell number channel AC50, cells fed with added oleic acid
[2] = measured here: lipid fluorescence (Fed channel) AC50, cells fed with added oleic acid

| SMILES | cell number change [%] | AC50 [1] | AC50 [2] |
| --- | --- | --- | --- |
| Cc1cc([N+](=O)[O-])ccc1NC1CCCC1 | -57.5 | 23.1 µM [falling, partial curve] | 6.51 µM [falling, partial curve] |
| O=C(NC1CCCCCC1)C1CCN(C(=O)Cc2ccccc2)CC1 | 19.8 | – | 18.4 µM [rising, single point] |
| COc1ccc(S(=O)(=O)N2CCCCC2)cc1NC(=O)CCNC(=O)c1ccco1 | – | 1.84 µM [rising, partial curve] | – |
| CC1=C(C(=O)Nc2ccc(CC(=O)NCc3ccccc3C)cc2)SCCO1 | -8.85 | – | 6.51 µM [rising, partial curve, poor fit] |
| O=C(C1CC1c1ccccc1)N1CCOCC1 (stereo not drawn) | 10.2 | – | 0.00517 µM [falling, full curve, poor fit] |
| CCOc1cc(N2CCOCC2)c(OCC)cc1NC(=O)COC(=O)CCOc1ccc(C)cc1 | 150 | 4.11 µM [rising, full curve] | 0.00461 µM [rising, full curve, poor fit] |
| COc1ccc(N2CCN(c3nc4ccccn4c(=O)c3C=O)CC2)cc1 | – | – | 3.26 µM [falling, partial curve] |
| S=C(NCCCN1CCOCC1)NC1CC1 | -27 | – | 35.5 µM [falling, single point] |
| COc1cccc(OC)c1OCCOCCn1cnc2ccccc2c1=O | 6.6 | – | – |
| Cn1cnc([N+](=O)[O-])c1Sc1ncn[nH]1 | 8.45 | 6.51 µM [rising, single point] | 6.51 µM [rising, partial curve, poor fit] |
| Cc1nc(C)c(C(=O)Nc2cccc(C)c2C)s1 | -1.42 | – | – |
| Cc1cc(C(=O)N/N=C/c2cc(Br)cc([N+](=O)[O-])c2O)c2ccccc2n1 | -12.7 | – | 29.1 µM [rising, single point] |
| CCC(=O)Nc1nc2c(s1)COc1ccccc1-2 | – | – | 0.116 µM [falling, full curve, poor fit] |
| COCCN(CC(=O)Nc1cccc(C)c1C)C(=O)c1cc(-c2ccncc2)nc2ccccc12 | -0.752 | – | 3.66 µM [rising, partial curve, poor fit] |
| Cc1ccc(C2=NS(=O)(=O)N(C)C(C(=O)NCc3ccco3)=C2)cc1 | 4.48 | – | – |
| NC(=O)c1ccccc1NC(=O)c1cc(S(=O)(=O)N2CCCCC2)ccc1N1CCOCC1 | 4.64 | 0.651 µM [falling, single point] | 0.58 µM [falling, single point] |
| CCCCOc1ccc(OC(=O)c2cccnc2)cc1 | -43.9 | 29.1 µM [falling, single point] | 14.6 µM [falling, partial curve, poor fit] |
| Cc1nc(C)c(C(=O)N2CCCC(C(=O)c3cc(F)ccc3F)C2)s1 (stereo not drawn) | -12.7 | – | 4.11 µM [falling, single point] |
| Cc1ccccc1N=Cc1cc2c(cc1[N+](=O)[O-])OCO2 | 9.43 | – | 0.411 µM [rising, partial curve, poor fit] |
| Cc1cc(C(=O)COC(=O)C2=COCCO2)c(C)n1-c1cccc(F)c1 | 67.5 | 20.6 µM [rising, single point] | – |

| SMILES | cell number change [%] | AC50 [1] | AC50 [2] |
| --- | --- | --- | --- |
| CCn1c(SCC(=O)Nc2nccs2)nnc1-c1ccccc1 | 21.2 | – | – |
| COc1ccccc1Nc1nc(=O)[nH]nc1C | – | 1.84 µM [rising, partial curve] | – |
| COc1ccc(CNc2nc3c(c(=O)n(Cc4ccc(Br)cc4)c(=O)n3C)n2C)cc1 | -5.9 | 2.59 µM [rising, single point] | 29.1 µM [falling, partial curve, poor fit] |
| O=C(/C=C/c1ccc2c(c1)OCO2)c1cccnc1 | -36.5 | 18.4 µM [falling, single point] | 4.11 µM [falling, full curve, poor fit] |
| COc1cccc(Oc2cncnc2-c2ccc(OC)cc2O)c1 | 11.1 | – | 5.17 µM [rising, full curve, poor fit] |
| C=CCc1ccc(OCCOCCNCCOC)c(OC)c1 | 23.1 | – | 16.4 µM [rising, single point] |
| CC(=O)N1c2ccc3ccccc3c2C(C)CC12CCCCC2 (stereo not drawn) | -33.9 | 16.4 µM [falling, single point] | 20.6 µM [falling, single point] |
| COC(=O)CSc1nc(C(C)C)nc2ccccc12 | 50.3 | 29.1 µM [rising, single point] | – |
| O=S(=O)(Nc1nc2ccccc2nc1N1CCc2ccccc2C1)c1ccc(Cl)cc1 | -13.5 | – | – |
| CCOc1ccc(NS(=O)(=O)c2cc(C(=O)N3CCCC3)ccc2Cl)cc1 | 34.1 | 2.31 µM [rising, full curve, poor fit] | – |
| O=c1o[nH]c(-c2ccccc2)c1C1=NCCCCC1 | 3.64 | – | 5.8 µM [rising, full curve] |
| O=C(Nc1ccccc1)C1=C[C@H](c2ccc3c(c2)OCO3)C[C@H](OCCCCO)O1 | 6.88 | – | 5.17 µM [rising, single point] |
| Cc1ccc(-c2n[nH]c(=O)c3ccccc23)cc1S(=O)(=O)Nc1ccc(F)cc1 | 7.61 | – | 6.51 µM [rising, single point] |
| CCOC(=O)C1CCCN(c2c(N3CCc4ccccc4C3)c(=O)c2=O)C1 (stereo not drawn) | 11.5 | – | 0.00411 µM [falling, full curve, poor fit] |
| CCN(CC)C(=O)c1sc(NC(=O)c2ccc3c(c2)OCO3)c(C#N)c1C | 28.3 | 0.00411 µM [rising, full curve] | 1.84 µM [rising, full curve, poor fit] |
| CCc1c(C)[nH]c2c(C)cccc2c1=O | – | 0.92 µM [rising, full curve] | 1.3 µM [rising, full curve] |
| O=C(NC(Cc1ccccc1)C(=O)N1CCCC1C(=O)O)c1ccccc1 (stereo not drawn) (Bz-Phe-Pro-OH; configuration not given here) | -3.01 | – | 16.4 µM [rising, single point] |
| COc1ccc2nc(N3CCCC(C(=O)NCCCN4C(C)CCCC4C)C3)sc2c1 (stereo not drawn) | 14.4 | – | 0.58 µM [rising, single point] |
| Nc1ccc2c(c1)N=[N+]([O-])c1cc(N)ccc1C2 | 13.3 | – | – |
| CSCCC(NC(=O)COc1ccccc1)C(=O)N(C)CC(=O)Nc1ccc(C)cc1 (stereo not drawn) | 10.4 | – | 32.6 µM [falling, single point] |

Looked up by structure from the list above, 2 records:

| SMILES | cell number change [%] | AC50 [1] | AC50 [2] |
| --- | --- | --- | --- |
| COc1cccc(OC)c1OCCOCCn1cnc2ccccc2c1=O | 6.6 | – | – |
| Cc1nc(C)c(C(=O)Nc2cccc(C)c2C)s1 | -1.42 | – | – |

(further entries)

| SMILES | cell number change [%] | AC50 [1] | AC50 [2] |
| --- | --- | --- | --- |
| CNC(=S)Nc1cccc(Cl)c1C | 14.3 | 0.58 µM [rising, full curve, poor fit] | 0.146 µM [rising, full curve, poor fit] |
| CC(=O)Nc1ccc(NC(=O)c2c(-c3ccccc3Cl)noc2C)cc1 | -22.9 | – | 0.184 µM [falling, full curve, poor fit] |
| C=CCN(c1ccccc1)S(=O)(=O)c1cccc(C(=O)N2CCN(c3ncccn3)CC2)c1 | -12.7 | – | 29.1 µM [falling, partial curve, poor fit] |
| CCN(Cc1ccccc1)CC(O)COc1ccccc1 (stereo not drawn) | 17.8 | – | 0.58 µM [falling, partial curve, poor fit] |
| Cc1ccc(C2CN=NC23CCc2ccccc2C3=O)cc1 (stereo not drawn) | 9.79 | – | 23.1 µM [rising, partial curve, poor fit] |
| O=C(c1cccs1)N1CCN(c2ncc(Br)cn2)CC1 | 11.2 | – | 6.51 µM [rising, partial curve, poor fit] |
| COC(=O)c1ccc(OCC2c3cc(OC)c(OC)cc3CCN2C(C)=O)cc1 (stereo not drawn) | -75.2 | – | – |
| CCOc1ccc(CNC(=O)CCCC(=O)n2nc(C)c3ccccc32)cc1 | 71.3 | 20.6 µM [rising, partial curve] | 29.1 µM [rising, partial curve] |
| CC(=O)NCCOC(=O)Nc1cccnc1 | -4.22 | – | 0.00517 µM [falling, full curve, poor fit] |
| O=C(/C=C/Sc1ccccc1)c1ccc(Cl)cc1 | 5.99 | 6.51 µM [falling, single point] | – |
| COc1ccc(CN(C(=O)c2ccco2)c2ccc(Br)cc2)cc1OC | 107 | 20.6 µM [rising, partial curve] | 29.1 µM [rising, single point] |
| CCc1cccc(CC)c1NC(=O)CSc1nnc(C2CC2)n1C | -6.76 | – | 3.26 µM [rising, full curve, poor fit] |
| O=C(NCc1ccncc1)c1cccc(S(=O)(=O)N2CCc3ccccc32)c1 | 2 | 0.517 µM [falling, partial curve, poor fit] | 0.517 µM [falling, full curve] |
| N#C/C(=C(/O)c1ccc([N+](=O)[O-])cc1)c1nnc2n1CCCCC2 | -31.1 | – | 8.2 µM [falling, partial curve] |
| Cn1c(SCc2c(F)cccc2Cl)nc2c(c1=O)SCC2 | 133 | – | – |
| CCc1oc(C(=O)O)cc1COC | -31.1 | 1.84 µM [falling, full curve, poor fit] | 16.4 µM [falling, partial curve] |
| CCC(C)NC(=O)CSc1nc2c(sc(=S)n2-c2cc(Cl)ccc2OC)c(=O)[nH]1 (stereo not drawn) | – | 6.51 µM [rising, single point] | – |
| C#CCN1C(=O)S/C(=C/C=C/c2ccc(N(C)C)cc2)C1=O | -46.9 | 25.9 µM [falling, single point] | 2.59 µM [falling, partial curve] |
